Results: PubChem BioAssay AID504834 (National Center for Advancing Translational Sciences (NCATS), 2011)
Hit rate of the full screen: of about 320,000 compounds, about 22,000 (6.9%) were called active. The shares of active, inactive and inconclusive entries below differ from those in the screen. Calls follow the shape of the dose curve; as a rule, active = well fitted inhibition curve with a large enough effect; inconclusive = small, poorly fitted or top-dose-only effect, or another doubt; inactive = no such curve, though single readings can be large or run the other way. A potency beside an inconclusive call is a rough fit, not a confirmed value.

Experiment: Primary qHTS for delayed death inhibitors of the malarial parasite plastid, 96 hour incubation
Conditions: P. falciparum luciferase reporter growth; series mostly up to 28.7 µM
Summary of the method: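 Cell-based qHTS: luciferase-tagged P. falciparum in erythrocytes (2% hematocrit, 0.05% parasitemia final) incubated with compounds for 96 hours, 37 C, 5% CO2; luciferase detection reagent then added and luminescence measured.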
Potency is read from the fitted curve at half-maximal effect.

Compound | Potency
Cc1nnc2ccc(-c3ccc(NS(=O)(=O)c4ccccc4)cc3)nn12 | inactive
COc1ccc(CNS(=O)(=O)c2cc3c4c(c2)CCN4C(=O)CC3)cc1 | inconclusive: 20.8 µM [inhibitor, partial curve, poor fit]
CCOC(=O)c1sc(=S)n(Cc2ccccc2)c1N | inconclusive: 14.7 µM [inhibitor, single point]
O=C(Nc1ccc(S(=O)(=O)N2CCCCC2)cc1)C1CC(=O)N(Cc2ccccc2)C1 (centres undefined) | inconclusive: 11.7 µM [inhibitor, single point]
CN1CCc2nc(SCC(=O)Nc3ccc(F)cc3)c(C#N)cc2C1 | inactive
CSc1ccccc1NC(=O)N1CCC(CO)(CC2CCCCO2)CC1 (centres undefined) | inactive
CCCCNC(=O)/C=C/c1ccc(S(=O)(=O)Nc2ccc(OC)cc2)cc1 | inconclusive: 18.5 µM [inhibitor, single point]
O=C(Nc1ccc2c(c1)OCO2)c1ccc(Br)s1 | active: 8.28 µM
Cc1ccsc1C1C(C#N)=C(N)N(N(C)C)C2=C1C(=O)CCC2 (centres undefined) | inactive
O=C(NCC(c1ccco1)N1CCCC1)c1sc2ccccc2c1Cl (centres undefined) | inconclusive: 11.7 µM [inhibitor, single point]
Nc1c2c(nc3ccn(-c4ccccc4)c(=O)c13)CCCCC2 | active: 16.5 µM
CCn1c(=O)cc(SCC(=O)NCc2cccnc2)c2ccccc21 | active: 9.28 µM
CCOC(=O)C1=C(C)N(Cc2ccc(C(=O)O)cc2)C(=O)NC1c1ccc([N+](=O)[O-])cc1 (centres undefined) | inconclusive: 10.4 µM [inhibitor, single point]
O=C(Nc1ccc(Oc2ccc(S(=O)(=O)N3CCOCC3)cn2)cc1)c1ccco1 | inconclusive: 10.4 µM [inhibitor, partial curve, poor fit]
C[C@H](NC(=O)c1nc[nH]c1C(=O)N[C@@H](CCCCNC(=O)OC(C)(C)C)C(=O)OC(C)(C)C)C(=O)OC(C)(C)C | active: 13.1 µM
Cc1ccc(C(=O)N2CCN(C)CC2)cc1S(=O)(=O)N1CCCCC1 | inconclusive: 18.5 µM [inhibitor, single point]
CCOC(=O)c1c(NC(=O)C(C)OC(=O)c2ccc(NC(=O)CC#N)cc2)sc2c1CCCC2 (centres undefined) | inconclusive: 18.5 µM [inhibitor, single point]
COc1ccc(C2CC(c3ccc(OC)cc3O)=NN2C(=O)c2ccccc2)cc1 (centres undefined) | inconclusive: 13.1 µM [inhibitor, partial curve, poor fit]
Cc1nn(-c2ccccc2)c(C)c1NC(=O)COC(=O)Cc1ccccc1 | inconclusive: 18.5 µM [inhibitor, single point]

No new results follow: 2 of the compounds above.
Compound | Potency
CSc1ccccc1NC(=O)N1CCC(CO)(CC2CCCCO2)CC1 (centres undefined) | inactive
CCCCNC(=O)/C=C/c1ccc(S(=O)(=O)Nc2ccc(OC)cc2)cc1 | inconclusive: 18.5 µM [inhibitor, single point]
